Assay results reported in publication PMC6220269, “Dynamic ubiquitylation of Sox2 regulates proteostasis and governs neural progenitor cell differentiation” (Nature Communications, 2018).
These are yes or no findings as the source states them, for the method shown. Binding seen in cells or lysates may run through a third protein. Some results given as binding are weak or reduced against the parent protein; the word gives no strength.

Protein sequences, listed by entry. Tags and fused reporters are not part of them.
UniProt Q6GQQ9: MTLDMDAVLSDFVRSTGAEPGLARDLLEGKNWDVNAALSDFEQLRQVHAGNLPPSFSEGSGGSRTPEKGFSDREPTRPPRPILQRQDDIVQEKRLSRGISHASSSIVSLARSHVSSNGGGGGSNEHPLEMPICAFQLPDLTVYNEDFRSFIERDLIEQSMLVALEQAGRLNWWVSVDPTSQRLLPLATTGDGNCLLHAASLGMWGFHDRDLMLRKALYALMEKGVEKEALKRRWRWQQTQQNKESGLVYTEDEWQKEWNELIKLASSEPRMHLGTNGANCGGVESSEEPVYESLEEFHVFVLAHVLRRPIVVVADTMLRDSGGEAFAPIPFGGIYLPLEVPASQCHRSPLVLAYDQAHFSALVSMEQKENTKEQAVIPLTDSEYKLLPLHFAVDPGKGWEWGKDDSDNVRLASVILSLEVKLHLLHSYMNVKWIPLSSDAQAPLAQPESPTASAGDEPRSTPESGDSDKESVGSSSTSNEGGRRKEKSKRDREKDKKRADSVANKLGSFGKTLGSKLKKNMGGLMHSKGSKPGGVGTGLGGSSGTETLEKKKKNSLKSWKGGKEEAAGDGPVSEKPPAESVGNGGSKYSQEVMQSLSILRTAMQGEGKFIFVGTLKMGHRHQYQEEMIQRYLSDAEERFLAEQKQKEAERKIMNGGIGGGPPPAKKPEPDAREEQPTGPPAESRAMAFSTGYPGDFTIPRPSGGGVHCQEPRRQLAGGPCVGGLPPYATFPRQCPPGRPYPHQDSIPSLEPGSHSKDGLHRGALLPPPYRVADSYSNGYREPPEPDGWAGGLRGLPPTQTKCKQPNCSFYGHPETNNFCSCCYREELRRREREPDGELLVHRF
UniProt P48431: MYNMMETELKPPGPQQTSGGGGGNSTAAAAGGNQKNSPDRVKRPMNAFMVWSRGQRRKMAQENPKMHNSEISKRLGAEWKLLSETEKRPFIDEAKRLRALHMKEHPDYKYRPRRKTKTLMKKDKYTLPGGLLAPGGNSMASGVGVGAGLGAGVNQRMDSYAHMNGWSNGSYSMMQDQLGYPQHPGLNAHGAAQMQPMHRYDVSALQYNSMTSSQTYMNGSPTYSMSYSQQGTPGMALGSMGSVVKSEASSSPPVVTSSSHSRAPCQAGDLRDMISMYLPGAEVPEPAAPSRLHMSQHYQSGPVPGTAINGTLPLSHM

Assays:
[1] = target: OTUD7B, ectopic (Flag-OTUD7B) (human) (UniProt Q6GQQ9); test: co-IP; lysates of transfected cells (HEK293T where stated); precipitation with anti-Myc, anti-Flag or His-tag affinity resin, then blot; HEPES lysis buffer (20 mM HEPES pH 7.2, 50 mM NaCl, 0.5% Triton X-100); in Fig. 3a, b also with control, CUL4A or DET1 siRNA
[2] = target: Sox2 (Sex determining region Y-box 2), endogenous in NPCs (human (endogenous in NPCs)) (UniProt P48431); test: co-IP; lysates of human NPCs; precipitation with control IgG, anti-Sox2 or anti-OTUD7B antibody and protein A/G agarose at 4 °C, then blot; HEPES lysis buffer (20 mM HEPES pH 7.2, 50 mM NaCl, 0.5% Triton X-100)

binding [1] | binding [2] | Substance
binds | – | Myc-Sox2 (from UniProt P48431 1-317)
– | binds | OTUD7B (OTU domain-containing protein 7B), endogenous in NPCs (from UniProt Q6GQQ9 1-843) (enzyme)
